From publication PMC9338940
These are yes or no findings as the source states them, for the method shown. In cells and extracts the contact can be indirect. Some binding calls cover weakened binding; strength is not graded here.

Amino acid sequences for entries named in this document (tags omitted). Residues count along the entry.
UniProt P35441, residues 19-1170: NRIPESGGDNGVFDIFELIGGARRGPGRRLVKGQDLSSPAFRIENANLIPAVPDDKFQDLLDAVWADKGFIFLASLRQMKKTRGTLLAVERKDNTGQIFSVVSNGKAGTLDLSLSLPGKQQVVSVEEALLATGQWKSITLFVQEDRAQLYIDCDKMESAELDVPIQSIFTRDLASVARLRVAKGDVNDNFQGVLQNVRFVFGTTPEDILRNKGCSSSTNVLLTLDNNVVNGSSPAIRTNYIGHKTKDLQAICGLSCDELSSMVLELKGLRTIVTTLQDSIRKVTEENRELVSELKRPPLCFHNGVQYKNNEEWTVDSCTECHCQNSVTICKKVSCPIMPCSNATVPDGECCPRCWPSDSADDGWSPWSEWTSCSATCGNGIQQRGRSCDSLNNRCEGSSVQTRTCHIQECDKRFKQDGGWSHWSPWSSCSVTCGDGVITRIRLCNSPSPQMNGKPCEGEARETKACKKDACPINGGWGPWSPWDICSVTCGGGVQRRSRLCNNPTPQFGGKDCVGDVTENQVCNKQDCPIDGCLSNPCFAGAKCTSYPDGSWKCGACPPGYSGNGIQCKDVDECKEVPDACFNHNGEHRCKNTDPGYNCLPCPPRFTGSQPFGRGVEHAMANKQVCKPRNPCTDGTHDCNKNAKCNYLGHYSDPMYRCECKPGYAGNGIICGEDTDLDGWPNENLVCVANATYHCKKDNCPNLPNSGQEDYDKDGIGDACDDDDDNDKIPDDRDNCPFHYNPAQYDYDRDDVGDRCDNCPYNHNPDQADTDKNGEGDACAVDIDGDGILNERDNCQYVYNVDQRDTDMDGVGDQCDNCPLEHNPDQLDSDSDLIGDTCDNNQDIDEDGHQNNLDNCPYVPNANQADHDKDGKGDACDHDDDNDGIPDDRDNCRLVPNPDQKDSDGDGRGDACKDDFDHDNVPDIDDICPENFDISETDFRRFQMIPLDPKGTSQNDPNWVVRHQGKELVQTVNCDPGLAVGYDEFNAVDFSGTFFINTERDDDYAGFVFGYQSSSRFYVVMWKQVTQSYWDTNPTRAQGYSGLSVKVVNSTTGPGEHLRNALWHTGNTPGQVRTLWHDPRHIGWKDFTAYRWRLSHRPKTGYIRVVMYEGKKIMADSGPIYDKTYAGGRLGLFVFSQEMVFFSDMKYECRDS

Target: T1, Sestrin2 (mouse (endogenous in conditionally immortalized mouse podocytes)) (UniProt P58043)
T1 sequence: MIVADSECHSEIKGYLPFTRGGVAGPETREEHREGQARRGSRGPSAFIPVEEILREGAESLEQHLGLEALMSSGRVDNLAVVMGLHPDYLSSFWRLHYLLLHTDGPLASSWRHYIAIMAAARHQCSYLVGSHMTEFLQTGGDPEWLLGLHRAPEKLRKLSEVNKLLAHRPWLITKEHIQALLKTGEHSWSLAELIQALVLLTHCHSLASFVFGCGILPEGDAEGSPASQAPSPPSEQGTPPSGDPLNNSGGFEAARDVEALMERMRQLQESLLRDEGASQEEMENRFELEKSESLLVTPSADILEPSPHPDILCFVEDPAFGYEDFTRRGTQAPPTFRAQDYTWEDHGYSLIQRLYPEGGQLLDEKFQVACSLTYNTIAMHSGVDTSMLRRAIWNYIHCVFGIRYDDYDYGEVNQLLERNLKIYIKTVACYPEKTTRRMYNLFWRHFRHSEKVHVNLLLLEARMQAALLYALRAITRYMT
Assay: co-IP; Sestrin2 antibody (2 ug) on Protein A&G magnetic beads, incubated with podocyte lysate overnight at 4 °C; lysis buffer 50 mM Tris/HCl, 1 mM EDTA, 150 mM NaCl, 0.25% sodium deoxycholate, 1% NP-40, pH 7.4; eluate blotted with TSP-1 antibody; podocytes exposed to high glucose

With “Thrombospondin-1 (from UniProt P35441 19-1170)” the binding was “binds”.
